From patent US10533989B2, “Metabolomics in pneumonia and sepsis” (University of Pittsburgh—Of the Commonwealth System of …, priority 2012, dated 2020)

Assay: Cecal ligation and puncture (CLP) sepsis model, metabolite levels in liver and kidney homogenates
Assay type: in vivo, C57BL/6 male mice
Details: mice, 8 h after CLP

SMILES: NC(=O)NC1NC(=O)NC1=O (stereo not drawn) [allantoin]
- Difference CLP vs sham consistent across both liver and kidney compartments: No other differences were consistent

SMILES: CNc1nc2c(ncn2[C@@H]2O[C@H](CO)[C@@H](O)[C@H]2O)c(=O)[nH]1 [N-2-methylguanosine]
- Difference CLP vs sham consistent across both liver and kidney compartments: No other differences were consistent

SMILES: Cn1cnc2c(ncn2[C@@H]2O[C@H](CO)[C@@H](O)[C@H]2O)c1=N [N1-methyladenosine]
- Relative level in kidney homogenate, CLP vs sham: not significantly different
- Relative level in liver homogenate, CLP vs sham: significant greater

SMILES: C[C@@H](O)[C@H](NC(=O)Nc1ncnc2c1ncn2[C@@H]1O[C@H](CO)[C@@H](O)[C@H]1O)C(=O)O [N6-carbamoylthreonyladenosine]
- Difference CLP vs sham consistent across both liver and kidney compartments: No other differences were consistent

SMILES: O=c1[nH]cc([C@@H]2O[C@H](CO)[C@@H](O)[C@H]2O)c(=O)[nH]1 [pseudouridine]
- Relative level in kidney homogenate, CLP vs sham: significant relative difference
- Relative level in liver homogenate, CLP vs sham: significant relative difference
- Relative level in kidney homogenate, CLP vs sham (listed as Pseudouridine): increased
- Relative level in liver homogenate, CLP vs sham (listed as Pseudouridine): increased
